test system: panelists; assay: Cooling intensity: panelists taste aqueous solutions, compared with menthol at 2 ppm; type: in vivo, human; settings: aqueous solution, Table 1

Row | SMILES | Odor
1 | CC1(C)[C@H]2CC[C@]1(C)[C@H](OC(=O)CCC(=O)O)C2 [Example 1, 4-oxo-4-(1S,2R,4S)1,7,7-trimethylbicyclo[2.2.1]heptan-2-yloxybutanoic acid] | None
2 | CC1(C)[C@@H]2CC[C@@]1(C)[C@H](OC(=O)CCC(=O)O)C2 [Example 4, 4-oxo-4-((1R,2R,4R)-1,7,7-trimethylbicyclo[2.2.1]heptan-2-yloxy)butanoic acid] | None
3 | CCOC(=O)CC(=O)O[C@@H]1C2(C)CCC(C2)C1(C)C (stereo partly drawn) [Example 6, Ethyl (2R)-1,3,3-trimethylbicyclo[2.2.1]heptan-2-yl malonate] | None
4 | CN(C)C(=O)CCC(=O)O[C@@H]1C2(C)CCC(C2)C1(C)C (stereo partly drawn) [Example 7, (2R)-1,3,3-trimethylbicyclo[2.2.1]heptan-2-yl 4-(dimethylamino)-4-oxobutanoate] | None
5 | C[C@@H](N)C(=O)OC1C2(C)CCC(C2)C1(C)C (stereo partly drawn) [Example 8, D-alanine fenchyl ester] | None
6 | CC1(C)[C@H]2CC[C@](C)(C2)[C@H]1OC(=O)CCC(=O)O [Example 9, 4-oxo-4-((1R,2R,4S)-1,3,3-trimethylbicyclo[2.2.1]heptan-2-yloxy)butanoic acid] | None
7 | CCNC(=O)C1CC(C)CCC1C(C)C (centres unmarked) [WS-3, N-ethyl p-menthanecarboxamide, reference compound] | None
8 | CC(C)[C@@H]1CC[C@@H](C)C[C@H]1O [l-Menthol, reference compound] | Minty

Source: patent publication US20080311232A1, “Cooling Compounds” (Givaudan, SA, priority 2007, published 2008)
